From article PMC3000357 (PLoS Genetics, 2010)
These are yes or no findings as the source states them, for the method shown. Binding seen in cells or lysates may run through a third protein. A yes stands for co-enrichment or nearness to the bait. Other partners may have been found. For some assays here: A no says only that the protein was not detected with the bait.

Columns and labels:
[1] = molecular target: T1, SSB-SPA (Bacillus subtilis) (UniProt P37455); assay: affinity purification with mass spectrometry; Tap-tag of SSB-SPA expressed from Pxyl at amyE beside wild-type SSB, cells grown with or without 0.2% D-xylose; control strain with wild-type ssb at amyE; SDS-PAGE, Coomassie, MALDI-TOF
T1 sequence: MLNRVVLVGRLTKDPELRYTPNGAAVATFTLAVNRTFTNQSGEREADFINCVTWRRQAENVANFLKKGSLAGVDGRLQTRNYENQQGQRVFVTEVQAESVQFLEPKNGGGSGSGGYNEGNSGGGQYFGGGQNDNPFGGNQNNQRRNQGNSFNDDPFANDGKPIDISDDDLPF

[2] = molecular target: T2, RecG-SPA (Bacillus subtilis) (UniProt O34942); assay: affinity purification with mass spectrometry; Tap-tag: tandem affinity purification of C-terminal SPA fusions expressed from their original locus in B. subtilis; SDS-PAGE, Coomassie, bands identified by MALDI-TOF
T2 sequence: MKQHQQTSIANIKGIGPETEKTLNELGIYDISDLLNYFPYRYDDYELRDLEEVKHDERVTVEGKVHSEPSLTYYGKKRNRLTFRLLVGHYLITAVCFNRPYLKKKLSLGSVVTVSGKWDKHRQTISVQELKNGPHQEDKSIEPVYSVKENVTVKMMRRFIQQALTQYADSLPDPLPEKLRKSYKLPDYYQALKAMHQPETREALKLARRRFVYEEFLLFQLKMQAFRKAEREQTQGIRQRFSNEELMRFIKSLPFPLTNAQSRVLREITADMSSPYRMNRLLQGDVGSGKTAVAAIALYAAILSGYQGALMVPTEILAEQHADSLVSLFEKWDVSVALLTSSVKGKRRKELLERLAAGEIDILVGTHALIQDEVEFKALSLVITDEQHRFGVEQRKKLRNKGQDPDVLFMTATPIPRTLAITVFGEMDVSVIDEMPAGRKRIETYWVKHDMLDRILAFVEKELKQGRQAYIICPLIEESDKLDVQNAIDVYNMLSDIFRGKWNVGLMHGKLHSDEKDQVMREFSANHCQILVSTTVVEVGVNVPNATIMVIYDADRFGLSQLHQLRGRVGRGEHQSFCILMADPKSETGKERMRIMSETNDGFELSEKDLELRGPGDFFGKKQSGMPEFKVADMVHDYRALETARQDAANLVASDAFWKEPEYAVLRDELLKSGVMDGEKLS

[3] = molecular target: T3, DinG-SPA (Bacillus subtilis) (UniProt P54394); assay: as above
T3 sequence: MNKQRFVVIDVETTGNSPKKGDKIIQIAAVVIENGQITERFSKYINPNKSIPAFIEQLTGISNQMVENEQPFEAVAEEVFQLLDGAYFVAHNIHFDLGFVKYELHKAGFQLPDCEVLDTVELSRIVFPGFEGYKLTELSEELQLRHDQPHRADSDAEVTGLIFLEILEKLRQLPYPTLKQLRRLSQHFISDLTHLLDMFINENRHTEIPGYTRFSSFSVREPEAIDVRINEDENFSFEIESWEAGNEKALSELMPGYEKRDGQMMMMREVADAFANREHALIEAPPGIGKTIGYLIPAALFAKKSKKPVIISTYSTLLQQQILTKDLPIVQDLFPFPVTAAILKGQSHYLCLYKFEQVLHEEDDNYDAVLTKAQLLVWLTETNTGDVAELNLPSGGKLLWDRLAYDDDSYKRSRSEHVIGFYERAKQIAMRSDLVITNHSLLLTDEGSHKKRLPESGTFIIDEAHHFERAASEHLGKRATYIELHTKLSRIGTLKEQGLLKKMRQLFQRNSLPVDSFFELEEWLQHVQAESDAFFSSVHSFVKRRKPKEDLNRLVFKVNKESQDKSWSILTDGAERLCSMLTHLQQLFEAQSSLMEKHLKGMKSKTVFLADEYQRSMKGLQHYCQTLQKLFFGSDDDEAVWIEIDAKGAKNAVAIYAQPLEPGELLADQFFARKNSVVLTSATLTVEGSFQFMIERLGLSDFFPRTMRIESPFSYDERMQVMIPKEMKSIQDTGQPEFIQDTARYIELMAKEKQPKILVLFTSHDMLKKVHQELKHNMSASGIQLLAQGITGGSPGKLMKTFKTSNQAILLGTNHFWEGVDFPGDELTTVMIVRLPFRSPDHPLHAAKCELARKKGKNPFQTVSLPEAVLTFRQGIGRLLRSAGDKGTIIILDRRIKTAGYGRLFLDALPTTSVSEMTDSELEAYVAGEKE

[4] = molecular target: T4, PcrA-SPA (Bacillus subtilis) (UniProt O34580); assay: as above
T4 sequence: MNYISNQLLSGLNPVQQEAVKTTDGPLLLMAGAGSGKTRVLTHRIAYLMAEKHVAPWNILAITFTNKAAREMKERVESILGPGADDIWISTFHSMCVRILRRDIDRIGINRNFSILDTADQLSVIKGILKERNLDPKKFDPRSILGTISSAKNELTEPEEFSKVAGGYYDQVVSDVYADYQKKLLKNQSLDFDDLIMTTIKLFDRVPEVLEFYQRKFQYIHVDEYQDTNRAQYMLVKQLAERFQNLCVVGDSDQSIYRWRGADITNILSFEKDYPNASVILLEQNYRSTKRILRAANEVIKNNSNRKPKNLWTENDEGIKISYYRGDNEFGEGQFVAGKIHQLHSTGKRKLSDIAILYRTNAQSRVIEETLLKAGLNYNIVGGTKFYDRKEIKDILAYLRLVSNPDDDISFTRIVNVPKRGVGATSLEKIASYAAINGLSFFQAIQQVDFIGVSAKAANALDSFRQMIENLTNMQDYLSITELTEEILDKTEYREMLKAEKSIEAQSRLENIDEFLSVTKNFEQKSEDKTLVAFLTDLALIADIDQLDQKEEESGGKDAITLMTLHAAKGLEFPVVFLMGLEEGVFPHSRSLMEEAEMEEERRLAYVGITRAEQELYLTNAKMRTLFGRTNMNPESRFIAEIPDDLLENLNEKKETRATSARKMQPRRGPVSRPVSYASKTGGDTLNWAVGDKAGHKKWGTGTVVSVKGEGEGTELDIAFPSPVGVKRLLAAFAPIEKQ

[5] = molecular target: T5, RecQ-SPA (Bacillus subtilis) (UniProt O34748); assay: as above
T5 sequence: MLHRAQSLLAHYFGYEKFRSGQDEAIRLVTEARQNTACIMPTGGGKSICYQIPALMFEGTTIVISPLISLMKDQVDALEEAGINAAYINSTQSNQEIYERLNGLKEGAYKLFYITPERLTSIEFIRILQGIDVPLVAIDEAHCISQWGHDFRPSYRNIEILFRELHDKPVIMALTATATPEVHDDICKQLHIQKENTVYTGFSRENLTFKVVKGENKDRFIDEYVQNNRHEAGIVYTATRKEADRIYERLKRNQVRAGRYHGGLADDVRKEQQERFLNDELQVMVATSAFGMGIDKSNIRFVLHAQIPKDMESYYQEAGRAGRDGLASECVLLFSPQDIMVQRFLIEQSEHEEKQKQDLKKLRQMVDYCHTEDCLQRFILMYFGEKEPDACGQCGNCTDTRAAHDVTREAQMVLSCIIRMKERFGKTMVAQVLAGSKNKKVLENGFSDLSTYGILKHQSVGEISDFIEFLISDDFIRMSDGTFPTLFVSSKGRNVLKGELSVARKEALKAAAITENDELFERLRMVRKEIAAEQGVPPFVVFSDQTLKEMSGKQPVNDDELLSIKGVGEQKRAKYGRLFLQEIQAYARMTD

binding [1]: binds
binding [2]: binds
binding [3]: no binding
binding [4]: no binding
binding [5]: binds
B1: Bacillus subtilis Single-Stranded DNA Binding protein (SSB), purified (natural protein, UniProt P37455 1-172, looked up)
chain: MLNRVVLVGRLTKDPELRYTPNGAAVATFTLAVNRTFTNQSGEREADFINCVTWRRQAENVANFLKKGSLAGVDGRLQTRNYENQQGQRVFVTEVQAESVQFLEPKNGGGSGSGGYNEGNSGGGQYFGGGQNDNPFGGNQNNQRRNQGNSFNDDPFANDGKPIDISDDDLPF
notes: Used as a tetramer; source: E. coli, purified (procedure in Text S1)
